Experimental data reported in paper PMC10619556, “Comprehensive Evaluation System for Post-Metabolic Activity of Potential Thyroid-Disrupting Chemicals” (Journal of Microbiology and Biotechnology, 2023).
Structures can show the parent of a compound that is named as a salt.

Assay: In vitro metabolic reaction using rat liver S9 fraction with LC-MS / GC-MS metabolic profiling
Conditions: rat liver S9, phase I+II reaction vs inactivated S9 control; BDE28 and 4,4'-DIDBP by GC-MS, others by LC-MS

**Q.** With `CCCCc1oc2ccccc2c1C(=O)c1cc(I)c(OCCN(CC)CC)c(I)c1` [Amiodarone, amiodarone hydrochloride] as the molecule, how does the Metabollic rate read?
**A.** 70%
